Article PMC4389229
Where two headings read alike, the source gives them in different places. These are yes or no findings as the source states them, for the method shown. Binding seen in cells or lysates may run through a third protein. These calls come from enrichment with a bait or labelling near it, and not all partners need be listed. For part of these data: Sequences can lack the tags named with a protein. Values belong to the molecule of their own block, whether it stands above or below them.

Chains of the proteins cited; added tags and fusions are not shown.
UniProt P22336: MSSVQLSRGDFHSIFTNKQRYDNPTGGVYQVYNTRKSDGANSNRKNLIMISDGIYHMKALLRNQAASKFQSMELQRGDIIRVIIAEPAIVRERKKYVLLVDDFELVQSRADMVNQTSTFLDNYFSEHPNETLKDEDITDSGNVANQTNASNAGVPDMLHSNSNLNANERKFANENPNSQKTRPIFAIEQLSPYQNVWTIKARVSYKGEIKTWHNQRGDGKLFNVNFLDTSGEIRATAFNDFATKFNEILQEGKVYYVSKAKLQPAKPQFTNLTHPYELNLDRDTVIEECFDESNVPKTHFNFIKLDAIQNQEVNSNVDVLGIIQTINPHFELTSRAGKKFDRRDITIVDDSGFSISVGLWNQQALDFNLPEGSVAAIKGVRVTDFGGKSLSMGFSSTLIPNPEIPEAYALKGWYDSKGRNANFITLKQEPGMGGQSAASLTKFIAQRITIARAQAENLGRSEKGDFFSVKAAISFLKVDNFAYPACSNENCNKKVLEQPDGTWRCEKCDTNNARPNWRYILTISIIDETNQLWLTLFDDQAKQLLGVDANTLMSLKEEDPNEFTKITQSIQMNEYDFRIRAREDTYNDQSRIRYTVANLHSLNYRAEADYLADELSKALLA
UniProt P13010: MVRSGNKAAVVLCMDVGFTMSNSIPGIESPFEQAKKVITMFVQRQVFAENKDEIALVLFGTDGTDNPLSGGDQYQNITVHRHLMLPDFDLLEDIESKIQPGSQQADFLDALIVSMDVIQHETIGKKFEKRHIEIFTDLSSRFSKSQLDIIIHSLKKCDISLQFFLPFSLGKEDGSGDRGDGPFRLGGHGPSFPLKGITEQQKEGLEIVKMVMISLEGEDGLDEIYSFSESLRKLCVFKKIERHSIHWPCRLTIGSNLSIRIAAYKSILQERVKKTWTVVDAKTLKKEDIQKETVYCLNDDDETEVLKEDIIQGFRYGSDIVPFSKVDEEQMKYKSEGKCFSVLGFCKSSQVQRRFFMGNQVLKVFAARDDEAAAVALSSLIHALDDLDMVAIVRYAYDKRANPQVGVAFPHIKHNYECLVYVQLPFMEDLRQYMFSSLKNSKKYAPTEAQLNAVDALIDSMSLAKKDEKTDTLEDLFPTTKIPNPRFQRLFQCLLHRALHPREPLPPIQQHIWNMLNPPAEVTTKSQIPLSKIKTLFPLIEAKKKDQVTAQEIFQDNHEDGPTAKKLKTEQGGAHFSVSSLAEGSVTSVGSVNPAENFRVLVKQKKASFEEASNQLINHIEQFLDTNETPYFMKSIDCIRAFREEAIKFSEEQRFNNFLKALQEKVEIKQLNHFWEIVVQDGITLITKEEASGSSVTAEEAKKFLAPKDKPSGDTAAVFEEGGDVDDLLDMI
UniProt P12956: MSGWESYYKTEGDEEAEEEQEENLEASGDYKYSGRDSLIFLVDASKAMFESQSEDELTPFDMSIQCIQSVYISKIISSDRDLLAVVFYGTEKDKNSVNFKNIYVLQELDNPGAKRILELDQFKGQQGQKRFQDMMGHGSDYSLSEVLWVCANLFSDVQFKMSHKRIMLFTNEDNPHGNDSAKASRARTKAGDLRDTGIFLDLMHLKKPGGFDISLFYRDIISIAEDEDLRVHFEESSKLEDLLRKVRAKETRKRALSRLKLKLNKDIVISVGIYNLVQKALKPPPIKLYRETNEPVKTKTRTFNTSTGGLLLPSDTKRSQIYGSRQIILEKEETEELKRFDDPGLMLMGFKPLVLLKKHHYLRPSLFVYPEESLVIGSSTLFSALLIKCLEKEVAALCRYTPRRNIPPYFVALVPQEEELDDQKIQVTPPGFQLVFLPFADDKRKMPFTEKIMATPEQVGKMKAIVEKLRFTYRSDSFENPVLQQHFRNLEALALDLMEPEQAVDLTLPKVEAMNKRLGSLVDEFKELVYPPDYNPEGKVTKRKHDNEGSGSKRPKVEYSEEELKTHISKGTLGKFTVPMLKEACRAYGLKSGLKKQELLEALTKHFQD

Experiments:
Cmr1-YFP (S. cerevisiae) = target: T1, Cmr1-YFP (S. cerevisiae) (UniProt Q12510); assay: affinity purification with mass spectrometry; SILAC-labelled S. cerevisiae expressing a YFP-tagged bait against an untagged control, forward and label-swap; cells treated with 200 ug/ml zeocin for 2 h (Rad52-YFP) or 0.03% MMS for 2 h (Rfa1-YFP, Cmr1-YFP); whole-cell extracts (10 mM Tris-HCl pH 7.5, 150 mM NaCl, 0.5% NP40, no EDTA) on GFP-Trap_A beads, 2 h at 4 C; LC-MS/MS
T1 sequence: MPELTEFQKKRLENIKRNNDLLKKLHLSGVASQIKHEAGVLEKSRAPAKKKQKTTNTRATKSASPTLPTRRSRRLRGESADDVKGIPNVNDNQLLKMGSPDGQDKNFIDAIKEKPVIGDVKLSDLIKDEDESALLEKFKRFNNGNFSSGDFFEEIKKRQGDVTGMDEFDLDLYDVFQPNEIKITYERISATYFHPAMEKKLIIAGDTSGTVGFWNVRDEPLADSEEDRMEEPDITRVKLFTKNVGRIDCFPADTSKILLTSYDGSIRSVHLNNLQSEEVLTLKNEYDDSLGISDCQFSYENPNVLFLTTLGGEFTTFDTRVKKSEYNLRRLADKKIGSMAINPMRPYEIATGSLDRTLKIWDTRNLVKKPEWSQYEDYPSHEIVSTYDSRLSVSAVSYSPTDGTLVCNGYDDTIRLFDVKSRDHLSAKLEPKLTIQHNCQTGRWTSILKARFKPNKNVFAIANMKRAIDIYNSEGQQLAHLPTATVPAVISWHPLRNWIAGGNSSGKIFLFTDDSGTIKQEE

GFP-WDR76 (human) [1] = target: T2, GFP-WDR76 (human) (UniProt Q9H967); assay: affinity purification with mass spectrometry; SILAC-labelled HeLa cells transfected with GFP-WDR76 or empty vector, lysed after 48 h in modified RIPA buffer (50 mM Tris-HCl pH 7.5, 150 mM NaCl, 1% NP-40, 0.1% Na-deoxycholate, 1 mM EDTA); GFP-Trap resin for 2 h; in-gel digestion, LC-MS/MS
T2 sequence: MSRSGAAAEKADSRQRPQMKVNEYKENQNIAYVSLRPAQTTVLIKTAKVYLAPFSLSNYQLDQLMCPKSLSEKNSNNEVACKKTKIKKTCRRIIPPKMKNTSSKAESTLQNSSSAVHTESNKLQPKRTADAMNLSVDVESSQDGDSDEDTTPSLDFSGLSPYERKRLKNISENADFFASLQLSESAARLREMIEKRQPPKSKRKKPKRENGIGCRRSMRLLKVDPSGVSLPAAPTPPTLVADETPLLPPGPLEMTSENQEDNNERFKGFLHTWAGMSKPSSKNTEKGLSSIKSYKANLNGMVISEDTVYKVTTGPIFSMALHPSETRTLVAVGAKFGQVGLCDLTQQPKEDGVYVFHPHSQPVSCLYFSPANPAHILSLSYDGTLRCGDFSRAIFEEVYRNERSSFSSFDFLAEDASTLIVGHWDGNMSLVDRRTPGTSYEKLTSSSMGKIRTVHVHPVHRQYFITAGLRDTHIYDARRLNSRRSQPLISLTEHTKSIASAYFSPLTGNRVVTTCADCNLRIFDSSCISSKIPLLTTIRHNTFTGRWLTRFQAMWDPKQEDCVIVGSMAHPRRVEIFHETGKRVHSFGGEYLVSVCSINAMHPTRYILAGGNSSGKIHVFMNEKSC

Rfa1-YFP (S. cerevisiae) = Rfa1-YFP (S. cerevisiae) (UniProt P22336); assay: affinity purification with mass spectrometry; SILAC-labelled S. cerevisiae expressing a YFP-tagged bait against an untagged control, forward and label-swap; cells treated with 200 ug/ml zeocin for 2 h (Rad52-YFP) or 0.03% MMS for 2 h (Rfa1-YFP, Cmr1-YFP); whole-cell extracts (10 mM Tris-HCl pH 7.5, 150 mM NaCl, 0.5% NP40, no EDTA) on GFP-Trap_A beads, 2 h at 4 C; LC-MS/MS
GFP-WDR76 (human) [2] = target: T2, GFP-WDR76 (human); assay: affinity purification with mass spectrometry; SILAC-labelled HeLa cells transfected with GFP-WDR76 or empty vector, lysed after 48 h in modified RIPA buffer (50 mM Tris-HCl pH 7.5, 150 mM NaCl, 1% NP-40, 0.1% Na-deoxycholate, 1 mM EDTA); GFP-Trap resin for 2 h; in-gel digestion, LC-MS/MS; remark: listed apart in the source

binding (Cmr1-YFP (S. cerevisiae)): binds
Molecule: Rfa1 (from UniProt P22336 1-621)

binding (GFP-WDR76 (human) [1]): binds
Molecule: XRCC5 (from UniProt P13010 1-732)

binding (GFP-WDR76 (human) [1]): binds
Molecule: XRCC6 (from UniProt P12956 1-609)

binding (Rfa1-YFP (S. cerevisiae)): binds
B1: Cmr1 (changed mutation rate 1) (protein, UniProt Q12510 1-522)
chain: T1 sequence

binding (GFP-WDR76 (human) [2]): binds
B2: SUGT1 (protein, UniProt Q9Y2Z0 1-365)
chain: MAAAAAGTATSQRFFQSFSDALIDEDPQAALEELTKALEQKPDDAQYYCQRAYCHILLGNYCVAVADAKKSLELNPNNSTAMLRKGICEYHEKNYAAALETFTEGQKLDIETGFHRVGQAGLQLLTSSDPPALDSQSAGITGADANFSVWIKRCQEAQNGSESEVWTHQSKIKYDWYQTESQVVITLMIKNVQKNDVNVEFSEKELSALVKLPSGEDYNLKLELLHPIIPEQSTFKVLSTKIEIKLKKPEAVRWEKLEGQGDVPTPKQFVADVKNLYPSSSPYTRNWDKLVGEIKEEEKNEKLEGDAALNRLFQQIYSDGSDEVKRAMNKSFMESGGTVLSTNWSDVGKRKVEINPPDDMEWKKY

binding (GFP-WDR76 (human) [2]): binds
B3: HELLS (protein, UniProt Q9NRZ9 1-838)
chain: MPAERPAGSGGSEAPAMVEQLDTAVITPAMLEEEEQLEAAGLERERKMLEKARMSWDRESTEIRYRRLQHLLEKSNIYSKFLLTKMEQQQLEEQKKKEKLERKKESLKVKKGKNSIDASEEKPVMRKKRGREDESYNISEVMSKEEILSVAKKNKKENEDENSSSTNLCVEDLQKNKDSNSIIKDRLSETVRQNTKFFFDPVRKCNGQPVPFQQPKHFTGGVMRWYQVEGMEWLRMLWENGINGILADEMGLGKTVQCIATIALMIQRGVPGPFLVCGPLSTLPNWMAEFKRFTPDIPTMLYHGTQEERQKLVRNIYKRKGTLQIHPVVITSFEIAMRDRNALQHCYWKYLIVDEGHRIKNMKCRLIRELKRFNADNKLLLTGTPLQNNLSELWSLLNFLLPDVFDDLKSFESWFDITSLSETAEDIIAKEREQNVLHMLHQILTPFLLRRLKSDVALEVPPKREVVVYAPLSKKQEIFYTAIVNRTIANMFGSSEKETIELSPTGRPKRRTRKSINYSKIDDFPNELEKLISQIQPEVDRERAVVEVNIPVESEVNLKLQNIMMLLRKCCNHPYLIEYPIDPVTQEFKIDEELVTNSGKFLILDRMLPELKKRGHKVLLFSQMTSMLDILMDYCHLRDFNFSRLDGSMSYSEREKNMHSFNTDPEVFIFLVSTRAGGLGINLTAADTVIIYDSDWNPQSDLQAQDRCHRIGQTKPVVVYRLVTANTIDQKIVERAAAKRKLEKLIIHKNHFKGGQSGLNLSKNFLDPKELMELLKSRDYEREIKGSREKVISDKDLELLLDRSDLIDQMNASGPIKEKMGIFKILENSEDSSPECLF
